The supplement of paper PMC10849652
The other results are listed elsewhere or left out.

The chains behind the UniProt entries cited, without tags or fusion partners. Where a name states a change or a piece, a line headed by the entry shows the natural chain unless it says otherwise.
UniProt Q15349, whole entry, looked up: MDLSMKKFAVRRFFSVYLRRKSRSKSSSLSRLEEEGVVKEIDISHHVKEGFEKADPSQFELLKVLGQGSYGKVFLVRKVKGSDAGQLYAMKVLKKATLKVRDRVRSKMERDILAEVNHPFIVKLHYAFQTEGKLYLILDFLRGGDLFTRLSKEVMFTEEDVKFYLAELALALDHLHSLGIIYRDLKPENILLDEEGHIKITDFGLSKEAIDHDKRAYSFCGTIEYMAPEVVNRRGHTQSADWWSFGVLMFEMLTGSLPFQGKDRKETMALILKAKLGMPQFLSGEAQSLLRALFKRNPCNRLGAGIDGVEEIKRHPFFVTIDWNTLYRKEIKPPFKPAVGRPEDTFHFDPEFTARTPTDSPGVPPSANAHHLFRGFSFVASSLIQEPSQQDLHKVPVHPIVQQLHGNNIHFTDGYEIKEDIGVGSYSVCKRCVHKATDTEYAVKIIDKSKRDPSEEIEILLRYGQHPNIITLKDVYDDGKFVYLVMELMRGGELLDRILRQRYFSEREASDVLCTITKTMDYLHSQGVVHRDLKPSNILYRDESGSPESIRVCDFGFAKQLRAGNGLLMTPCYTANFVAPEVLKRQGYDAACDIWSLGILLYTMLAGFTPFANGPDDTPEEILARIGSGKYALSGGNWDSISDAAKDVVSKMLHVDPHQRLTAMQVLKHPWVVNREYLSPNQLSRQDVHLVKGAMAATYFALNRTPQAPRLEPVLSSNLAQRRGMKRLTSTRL
UniProt P05387, whole entry, looked up: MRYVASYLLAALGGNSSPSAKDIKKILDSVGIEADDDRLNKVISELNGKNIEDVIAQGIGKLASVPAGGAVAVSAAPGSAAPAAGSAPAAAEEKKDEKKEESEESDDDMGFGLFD
UniProt Q8TA86: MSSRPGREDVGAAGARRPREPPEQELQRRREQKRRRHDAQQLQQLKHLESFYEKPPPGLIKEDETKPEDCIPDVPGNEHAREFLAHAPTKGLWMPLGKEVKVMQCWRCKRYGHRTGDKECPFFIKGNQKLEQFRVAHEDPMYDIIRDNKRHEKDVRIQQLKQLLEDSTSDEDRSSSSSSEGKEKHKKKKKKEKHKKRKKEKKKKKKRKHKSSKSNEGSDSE
UniProt Q8N5L8: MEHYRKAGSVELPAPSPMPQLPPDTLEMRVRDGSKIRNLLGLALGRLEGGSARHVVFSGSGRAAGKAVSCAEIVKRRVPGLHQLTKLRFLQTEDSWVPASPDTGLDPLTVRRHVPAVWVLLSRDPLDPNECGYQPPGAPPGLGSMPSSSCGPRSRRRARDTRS
UniProt Q9H4A4: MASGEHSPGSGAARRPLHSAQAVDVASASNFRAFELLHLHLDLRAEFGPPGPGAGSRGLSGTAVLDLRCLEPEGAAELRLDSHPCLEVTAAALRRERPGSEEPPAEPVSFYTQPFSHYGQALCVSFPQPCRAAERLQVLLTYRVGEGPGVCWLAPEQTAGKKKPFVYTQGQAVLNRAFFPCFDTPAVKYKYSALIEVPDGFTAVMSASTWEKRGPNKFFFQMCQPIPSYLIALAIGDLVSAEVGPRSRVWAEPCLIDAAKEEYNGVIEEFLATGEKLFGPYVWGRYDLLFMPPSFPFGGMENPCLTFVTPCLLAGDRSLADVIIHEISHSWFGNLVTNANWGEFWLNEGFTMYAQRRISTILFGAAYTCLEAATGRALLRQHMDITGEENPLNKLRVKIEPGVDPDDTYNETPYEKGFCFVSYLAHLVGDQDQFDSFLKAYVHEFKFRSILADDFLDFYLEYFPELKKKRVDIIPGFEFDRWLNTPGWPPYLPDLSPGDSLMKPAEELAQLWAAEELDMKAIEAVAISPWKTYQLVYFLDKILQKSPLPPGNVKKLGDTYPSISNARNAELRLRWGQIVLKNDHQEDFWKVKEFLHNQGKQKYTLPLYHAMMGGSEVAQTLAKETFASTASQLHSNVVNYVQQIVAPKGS
UniProt Q13464: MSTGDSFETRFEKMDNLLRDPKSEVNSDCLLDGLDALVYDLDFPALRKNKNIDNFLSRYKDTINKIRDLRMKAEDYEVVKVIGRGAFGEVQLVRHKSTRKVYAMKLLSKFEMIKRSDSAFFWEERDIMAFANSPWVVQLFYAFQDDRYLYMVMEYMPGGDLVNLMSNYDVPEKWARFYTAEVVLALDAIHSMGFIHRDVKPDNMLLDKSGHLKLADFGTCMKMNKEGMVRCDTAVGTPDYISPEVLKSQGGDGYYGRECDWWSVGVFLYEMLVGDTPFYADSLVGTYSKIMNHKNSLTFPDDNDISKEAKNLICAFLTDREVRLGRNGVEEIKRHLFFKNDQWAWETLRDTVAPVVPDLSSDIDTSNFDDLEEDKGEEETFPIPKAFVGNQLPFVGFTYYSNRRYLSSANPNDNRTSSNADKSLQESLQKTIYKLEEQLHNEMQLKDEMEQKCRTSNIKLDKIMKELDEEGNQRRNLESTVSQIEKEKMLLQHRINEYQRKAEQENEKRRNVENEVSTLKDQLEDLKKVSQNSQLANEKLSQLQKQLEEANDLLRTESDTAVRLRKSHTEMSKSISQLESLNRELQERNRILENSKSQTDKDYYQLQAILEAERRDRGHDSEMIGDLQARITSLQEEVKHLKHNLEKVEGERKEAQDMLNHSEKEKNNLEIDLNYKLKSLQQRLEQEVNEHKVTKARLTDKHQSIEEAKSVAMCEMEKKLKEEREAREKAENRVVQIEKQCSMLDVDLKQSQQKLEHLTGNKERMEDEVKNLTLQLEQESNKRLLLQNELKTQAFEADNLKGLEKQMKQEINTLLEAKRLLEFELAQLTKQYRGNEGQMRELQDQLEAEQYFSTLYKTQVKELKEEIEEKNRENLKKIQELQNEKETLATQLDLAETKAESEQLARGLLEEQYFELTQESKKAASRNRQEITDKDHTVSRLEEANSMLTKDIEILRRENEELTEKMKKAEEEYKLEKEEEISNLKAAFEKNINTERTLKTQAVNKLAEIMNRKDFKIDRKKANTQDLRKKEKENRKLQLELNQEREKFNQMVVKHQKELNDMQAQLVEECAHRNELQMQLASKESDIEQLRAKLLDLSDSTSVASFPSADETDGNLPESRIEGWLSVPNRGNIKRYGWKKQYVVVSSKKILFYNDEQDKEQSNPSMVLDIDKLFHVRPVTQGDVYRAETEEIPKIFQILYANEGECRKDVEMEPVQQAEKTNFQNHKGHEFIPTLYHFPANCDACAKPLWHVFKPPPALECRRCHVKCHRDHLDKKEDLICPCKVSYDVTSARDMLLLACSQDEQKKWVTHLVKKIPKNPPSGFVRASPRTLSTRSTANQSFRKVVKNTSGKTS
UniProt Q969K3: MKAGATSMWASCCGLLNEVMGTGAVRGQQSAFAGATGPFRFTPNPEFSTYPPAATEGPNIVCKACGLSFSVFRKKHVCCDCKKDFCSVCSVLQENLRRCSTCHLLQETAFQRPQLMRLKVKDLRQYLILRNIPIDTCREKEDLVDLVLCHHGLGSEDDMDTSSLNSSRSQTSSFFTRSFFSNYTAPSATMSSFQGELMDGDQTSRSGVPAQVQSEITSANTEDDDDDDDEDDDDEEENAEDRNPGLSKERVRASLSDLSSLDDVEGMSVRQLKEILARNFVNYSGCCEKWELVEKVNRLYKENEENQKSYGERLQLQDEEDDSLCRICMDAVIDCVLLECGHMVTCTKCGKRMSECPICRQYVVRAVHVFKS
UniProt P27694, whole entry, looked up: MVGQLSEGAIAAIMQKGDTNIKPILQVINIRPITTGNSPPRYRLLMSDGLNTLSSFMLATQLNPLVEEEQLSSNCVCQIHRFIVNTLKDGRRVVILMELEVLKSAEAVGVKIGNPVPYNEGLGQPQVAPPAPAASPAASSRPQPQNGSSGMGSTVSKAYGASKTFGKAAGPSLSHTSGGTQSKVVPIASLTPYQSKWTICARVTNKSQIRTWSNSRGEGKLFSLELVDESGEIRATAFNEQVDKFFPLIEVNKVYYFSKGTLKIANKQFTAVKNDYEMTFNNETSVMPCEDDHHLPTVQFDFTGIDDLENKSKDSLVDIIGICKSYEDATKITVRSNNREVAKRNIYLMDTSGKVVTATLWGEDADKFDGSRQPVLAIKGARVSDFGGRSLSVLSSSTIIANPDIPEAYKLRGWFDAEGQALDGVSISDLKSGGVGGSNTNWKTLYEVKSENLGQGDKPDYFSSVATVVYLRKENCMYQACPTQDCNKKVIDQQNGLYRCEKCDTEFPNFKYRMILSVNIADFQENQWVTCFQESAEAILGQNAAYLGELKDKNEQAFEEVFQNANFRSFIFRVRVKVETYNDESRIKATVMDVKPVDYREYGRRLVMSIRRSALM
UniProt Q15418, whole entry, looked up: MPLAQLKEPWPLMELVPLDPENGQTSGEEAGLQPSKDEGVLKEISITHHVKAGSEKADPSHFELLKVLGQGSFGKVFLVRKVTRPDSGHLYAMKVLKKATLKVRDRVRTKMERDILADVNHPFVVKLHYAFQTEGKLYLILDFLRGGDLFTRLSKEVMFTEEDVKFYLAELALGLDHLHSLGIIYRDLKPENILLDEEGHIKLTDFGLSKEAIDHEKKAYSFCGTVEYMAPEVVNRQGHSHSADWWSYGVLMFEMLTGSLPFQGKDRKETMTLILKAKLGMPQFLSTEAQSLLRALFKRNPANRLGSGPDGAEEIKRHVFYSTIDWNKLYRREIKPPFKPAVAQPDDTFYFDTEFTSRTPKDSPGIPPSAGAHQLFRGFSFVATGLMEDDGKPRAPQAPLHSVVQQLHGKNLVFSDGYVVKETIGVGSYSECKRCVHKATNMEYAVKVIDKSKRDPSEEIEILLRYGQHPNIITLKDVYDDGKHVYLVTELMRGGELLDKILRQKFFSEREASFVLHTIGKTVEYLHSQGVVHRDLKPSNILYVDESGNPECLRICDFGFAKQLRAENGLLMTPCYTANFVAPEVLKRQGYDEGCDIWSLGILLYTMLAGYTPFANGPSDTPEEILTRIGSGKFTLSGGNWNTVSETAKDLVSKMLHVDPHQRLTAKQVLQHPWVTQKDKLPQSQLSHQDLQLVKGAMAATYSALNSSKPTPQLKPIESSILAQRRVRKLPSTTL
UniProt O75818: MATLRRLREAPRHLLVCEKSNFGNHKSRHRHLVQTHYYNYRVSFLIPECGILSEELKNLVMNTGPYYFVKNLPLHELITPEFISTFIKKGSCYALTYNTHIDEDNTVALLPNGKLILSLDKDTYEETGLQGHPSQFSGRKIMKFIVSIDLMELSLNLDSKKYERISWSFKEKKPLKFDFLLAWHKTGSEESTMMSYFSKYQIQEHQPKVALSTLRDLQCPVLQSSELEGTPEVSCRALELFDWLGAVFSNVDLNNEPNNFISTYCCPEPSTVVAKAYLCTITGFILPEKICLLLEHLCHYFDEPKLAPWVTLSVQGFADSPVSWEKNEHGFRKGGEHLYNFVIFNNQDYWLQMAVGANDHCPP

Tests used:
Experiment in all cases: log2 fold change, soluble protein after heating vs DMSO (PISA); higher = thermal stabilisation; K562 cells, 10 uM, 30 min; active = over 0.2 and 3.5 SD of the protein, either way, in both replicates (recomputed)
[1] = compound: CC[C@@H]1C(=O)N(C)c2cnc(Nc3ccc(C(=O)NC4CCN(C)CC4)cc3OC)nc2N1C1CCCC1
In short: (§1)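 Thermal stability values are relative to control samples and come from duplicates. They are expressed as log2 fold changes. For measurement, K562 cells (2×10^6 cells/mL) received 10 μM compound for 30 min, and aliquots were heated for 3 min over 48°C-58°C, pooled, and extracted at 4°C in PBS with 0.5% NP-40. Soluble protein, the supernatant after 21,000xg for 90 min, was quantified by TMTpro 16plex LC-MS/MS with equalised channel sums.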

[2] = compound: CC[C@@H]1C(=O)N(C)c2cnc(Nc3ccc(C(=O)N[C@H]4CC[C@H](N5CCN(CC6CC6)CC5)CC4)cc3OC)nc2N1C(C)C [volasertib]
In short: as §1

[3] = compound: CC[C@H](C)N1C=C(C2=C(C=C(C=C21)C3=CN=C(C=C3)N4CCNCC4)C(=O)NCC5=C(C=C(NC5=O)C)C)C
In short: as §1

[4] = compound: CC[C@H](C)[C@@H](C(=O)N[C@@H]([C@@H](C)O)C(=O)N[C@@H](CC(C)C)C(=O)[C@]1(CO1)C)NC(=O)[C@H]([C@@H](C)CC)N(C)C(=O)C [epoxomicin]
In short: as §1

[5] = compound: CCn1cc(-c2ccnc3[nH]c(-c4cccc(CN(C)C)c4)cc23)c(-c2ccc(NC(=O)N(C)C)cc2)n1
In short: as §1

[6] = compound: CN(C)CC(=O)Nc1ccc2[nH]c(=O)c3ccccc3c2c1
In short: as §1

[7] = compound: CN1C2=C(C3=C1C(=O)N(N=C3)CC4=CC(=CC=C4)N)SC(=C2)S(=O)C
In short: as §1

[8] = compound: CN1CCC(CNc2ccc3ncc(-c4cccc(OC(F)(F)F)c4)n3n2)CC1
In short: as §1

[9] = compound: CN1CCN(CCOc2cc(OC3CCOCC3)c3c(Nc4c(Cl)ccc5c4OCO5)ncnc3c2)CC1 [saracatinib]
In short: as §1

[10] = compound: CN1CCN(c2nc(C3=C(c4c[nH]c5ccccc45)C(=O)NC3=O)c3ccccc3n2)CC1 [sotrastaurin]
In short: as §1

[11] = compound: CN1CCc2c(c3ccccc3n2Cc2ccc(C(=O)NO)cc2)C1 [Tubastatin A]
In short: as §1

[12] = compound: CNC(=O)C1=CC=CC=C1NC2=NC(=NC=C2Cl)NC3=C(C=C(C=C3)N4CCOCC4)OC
In short: as §1

[13] = compound: CNC(=O)c1ccc(Nc2ncc(C(F)(F)F)c(NCc3nccnc3N(C)S(C)(=O)=O)n2)cc1 [defactinib]
In short: as §1

[14] = compound: CNCc1ccc(-c2[nH]c3cc(F)cc4c3c2CCNC4=O)cc1 [rucaparib]
In short: as §1

[15] = compound: CNc1nc(-c2ccc3c(N)n[nH]c3c2)cc(N2C[C@@H](C(=O)NC3CCCCC3)CC[C@H]2C)n1
In short: as §1

[16] = compound: COC(=O)N[C@@H](C)CNc1nccc(-c2cn(C(C)C)nc2-c2cc(Cl)cc(NS(C)(=O)=O)c2F)n1 [encorafenib]
In short: as §1

[17] = compound: COC(=O)[C@H](CCSC)NC(=O)C1=C(C=C(C=C1)NC[C@H](CS)N)C2=CC=CC=C2
In short: as §1

[18] = compound: CCn1c(C(=O)N(C2CC2)C2CC2)cc2c3c(ncn3C)c(Nc3cc(C)n(C)n3)nc21
In short: as §1

[19] = compound: CN(CCOC1=CC=C(C=C1)C[C@H]2C(=O)NC(=O)S2)C3=CC=CC=N3 (racemic) [rosiglitazone]
In short: as §1

[20] = compound: CN1CC[C@H](c2c(O)cc(O)c3c(=O)cc(-c4ccccc4Cl)oc23)[C@H](O)C1 [alvocidib]
In short: as §1

Measured: log2 fold change

RPS6KA2 isoform 2 (UniProt Q15349)
inactive: [1] -0.136 | [2] -0.179 | [3] 0.034 | [4] 0.041 | [5] -0.126 | [6] 0.025 | [7] -0.038 | [8] -0.313 | [9] 0 | [10] -0.049 | [11] -0.01 | [13] -0.209 | [14] -0.049 | [15] -0.08 | [16] 0.014 | [17] -0.009
active: [12] -0.422

RPLP2 (UniProt P05387)
inactive: [1] 0.252 | [2] 0.649 | [3] -0.021 | [4] -0.516 | [18] 0.093 | [5] 0.317 | [6] -0.223 | [19] -0.209 | [7] 0.303 | [8] 0.38 | [9] -0.048 | [10] -0.012 | [20] 0.434 | [11] 0.237 | [12] -0.002 | [13] 0.412 | [14] 0.336 | [15] 0.184 | [16] 0.203 | [17] -0.027

RPS18 (UniProt P62269)
inactive: [1] 0.158 | [2] 0.3 | [3] -0.011 | [4] -0.111 | [5] 0.057 | [6] -0.036 | [7] 0.096 | [8] 0.11 | [9] -0.022 | [10] 0.039 | [11] 0.105 | [12] 0.071 | [13] 0.21 | [14] 0.152 | [15] 0.041 | [16] 0.008 | [17] 0.04

RPS27A (UniProt P62979)
inactive: [1] -0.061 | [2] 0.36 | [3] 0.05 | [4] -0.078 | [5] 0.033 | [6] -0.153 | [7] 0.155 | [8] 0.194 | [9] 0.029 | [10] 0.107 | [11] -0.013 | [12] 0.05 | [13] 0.227 | [14] 0.105 | [15] 0.043 | [16] -0.007 | [17] 0.156

Random excerpt: 2 records from the list, in no set order.
RPS18 (UniProt P62269)
inactive: [1] 0.158 | [2] 0.3 | [3] -0.011 | [4] -0.111 | [5] 0.057 | [6] -0.036 | [7] 0.096 | [8] 0.11 | [9] -0.022 | [10] 0.039 | [11] 0.105 | [12] 0.071 | [13] 0.21 | [14] 0.152 | [15] 0.041 | [16] 0.008 | [17] 0.04

RPLP2 (UniProt P05387)
inactive: [1] 0.252 | [2] 0.649 | [3] -0.021 | [4] -0.516 | [18] 0.093 | [5] 0.317 | [6] -0.223 | [19] -0.209 | [7] 0.303 | [8] 0.38 | [9] -0.048 | [10] -0.012 | [20] 0.434 | [11] 0.237 | [12] -0.002 | [13] 0.412 | [14] 0.336 | [15] 0.184 | [16] 0.203 | [17] -0.027

Additional results.

RPS13 (UniProt P62277)
inactive: [1] 0.219 | [2] 0.567 | [3] 0.035 | [4] -0.324 | [5] 0.236 | [6] -0.066 | [7] 0.219 | [8] 0.243 | [9] -0.149 | [10] 0 | [11] 0.106 | [12] 0.097 | [13] 0.339 | [14] 0.261 | [15] 0.111 | [16] 0.137 | [17] 0.031

RPL38 (UniProt P63173)
inactive: [1] 0.076 | [2] 0.187 | [3] 0.033 | [4] -0.062 | [5] -0.03 | [6] -0.02 | [7] -0.004 | [8] 0.052 | [9] -0.018 | [10] 0.01 | [11] 0.014 | [12] 0.027 | [13] 0.126 | [14] 0.093 | [15] 0.044 | [16] 0.003 | [17] 0.037

RP9 (UniProt Q8TA86)
inactive: [1] 0.221 | [2] 0.259 | [3] -0.003 | [4] -0.122 | [18] 0.186 | [5] 0.165 | [19] -0.076 | [7] 0.355 | [8] 0.074 | [9] -0.131 | [10] -0.039 | [20] 0.258 | [11] 0.09 | [12] -0.175 | [14] 0.209 | [15] -0.018 | [16] 0.117

RPS3A (UniProt P61247)
inactive: [1] 0.133 | [2] 0.339 | [3] 0.02 | [4] -0.124 | [5] 0.114 | [6] -0.063 | [7] 0.138 | [8] 0.105 | [9] -0.034 | [10] 0.015 | [11] 0.075 | [12] 0.105 | [13] 0.192 | [14] 0.101 | [15] 0.069 | [16] 0.047 | [17] -0.018

RPP25L (UniProt Q8N5L8)
inactive: [1] 0.144 | [2] 0.115 | [3] -0.042 | [4] -0.04 | [5] 0.059 | [6] -0.074 | [7] 0.061 | [8] 0.058 | [9] -0.079 | [10] -0.087 | [11] 0.026 | [12] 0.062 | [13] 0.002 | [14] -0.032 | [15] -0.158 | [16] 0.014 | [17] 0.058

RNPEP (UniProt Q9H4A4)
active: [2] -0.303
inactive: [1] 0.015 | [3] 0.078 | [4] 0.042 | [5] -0.09 | [6] 0.034 | [7] -0.036 | [8] -0.119 | [9] -0.02 | [10] -0.038 | [11] 0.064 | [12] 0.034 | [13] -0.036 | [14] -0.004 | [15] 0.04 | [16] -0.005 | [17] -0.041

RPL31 (UniProt P62899)
inactive: [1] 0.212 | [2] 0.457 | [3] 0.01 | [4] -0.238 | [5] 0.216 | [6] -0.108 | [7] 0.251 | [8] 0.259 | [9] -0.068 | [10] -0.003 | [11] 0.147 | [12] 0.096 | [13] 0.282 | [14] 0.238 | [15] 0.121 | [16] 0.088 | [17] -0.052

ROCK1 (UniProt Q13464)
inactive: [1] -0.005 | [2] -0.083 | [3] 0.005 | [4] -0.011 | [5] -0.05 | [6] -0.011 | [7] 0.031 | [8] 0.096 | [9] -0.006 | [10] -0.056 | [11] -0.009 | [12] -0.016 | [13] -0.023 | [14] 0.021 | [15] 0.122 | [16] 0.031 | [17] -0.015

RPS20 isoform 2 (UniProt P60866)
inactive: [1] 0.114 | [2] 0.31 | [3] -0.009 | [4] -0.103 | [5] 0.065 | [6] -0.03 | [7] 0.091 | [8] 0.063 | [9] -0.1 | [10] 0.019 | [11] 0.054 | [12] 0.066 | [13] 0.216 | [14] 0.093 | [15] -0.009 | [16] 0.041 | [17] 0.001

RNF34 isoform 2 (UniProt Q969K3)
inactive: [1] -0.099 | [2] -0.158 | [3] -0.002 | [4] 0.05 | [18] -0.026 | [5] -0.074 | [6] -0.239 | [19] 0.049 | [7] -0.114 | [8] -0.232 | [9] -0.048 | [20] -0.061 | [11] 0.143 | [12] -0.033 | [13] -0.084 | [14] 0.065 | [15] 0.1 | [16] -0.064 | [17] 0.067

RPS11 (UniProt P62280)
inactive: [1] 0.218 | [2] 0.576 | [3] 0.031 | [4] -0.337 | [18] 0.042 | [5] 0.152 | [6] -0.156 | [19] -0.113 | [7] 0.278 | [8] 0.207 | [9] -0.095 | [10] 0 | [20] 0.343 | [11] 0.097 | [12] 0.074 | [13] 0.367 | [14] 0.258 | [15] 0.144 | [16] 0.142 | [17] 0.003

RPA1 (UniProt P27694)
inactive: [1] -0.108 | [3] 0.083 | [4] 0.09 | [5] -0.02 | [6] 0.044 | [7] -0.048 | [8] -0.079 | [9] -0.007 | [10] -0.016 | [11] 0.039 | [12] 0.012 | [13] -0.076 | [14] 0.027 | [15] -0.01 | [16] 0.076 | [17] -0.021
active: [2] -0.326

RPS6KA1 isoform 2 (UniProt Q15418)
inactive: [1] -0.223 | [2] -0.212 | [3] 0.053 | [4] 0.071 | [5] -0.146 | [6] 0.026 | [7] -0.032 | [9] 0.02 | [10] -0.067 | [11] 0.005 | [12] -0.088 | [13] -0.258 | [14] -0.108 | [15] -0.101 | [16] -0.018 | [17] -0.015
active: [8] -0.438

RPP40 (UniProt O75818)
inactive: [1] 0.124 | [2] 0.152 | [3] -0.006 | [4] -0.044 | [18] 0.042 | [5] 0.062 | [6] -0.023 | [19] -0.003 | [7] 0.063 | [8] 0.116 | [9] 0.045 | [10] 0.068 | [20] 0.042 | [11] 0 | [12] -0.007 | [13] 0.025 | [14] 0.023 | [15] -0.023 | [16] 0.01 | [17] 0.067
